# Reference: the supplement of paper PMC8728848
# The list shows a part of the results.
# B1: PEB1 (Campylobacter jejuni), Q0P9X8 (protein)
# chain: MVFRKSLLKLAVFALGACVAFSNANAAEGKLESIKSKGQLIVGVKNDVPHYALLDQATGEIKGFEVDVAKLLAKSILGDDKKIKLVAVNAKTRGPLLDNGSVDAVIATFTITPERKRIYNFSEPYYQDAIGLLVLKEKKYKSLADMKGANIGVAQAATTKKAIGEAAKKIGIDVKFSEFPDYPSIKAALDAKRVDAFSVDKSILLGYVDDKSEILPDSFEPQSYGIVTKKDDPAFAKYVDDFVKEHKNEIDALAKKWGL
# Assays:
# Test in all cases: glycan array binding signal (z-score within array); higher = stronger binding
# Conditions in all cases: glycan notation: IUPAC condensed, linker removed
# [1] = biological target: Neu5Ac(a2-6)Gal(b1-4)GlcNAc(b1-2)Man(a1-3)[Neu5Ac(a2-6)Gal(b1-4)GlcNAc(b1-2)Man(a1-6)]Man(b1-4)GlcNAc(b1-4)GlcNAc
# How it was run: (§1)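 The binding signal is a Z-score computed within each array and averaged over linkers. Arrays of the same protein sequence at different concentrations or buffers were also averaged together. Data originate from 3228 arrays in the Consortium for Functional Glycomics database, kept only where the protein sequence was available.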
# [2] = biological target: Neu5Ac(a2-6)Gal(b1-4)GlcNAc(b1-2)Man(a1-6)Man(b1-4)GlcNAc(b1-4)GlcNAc
# How it was run: as §1
# [3] = biological target: Neu5Ac(a2-6)Gal(b1-4)GlcNAc(b1-2)Man(a1-6)[Gal(b1-4)GlcNAc(b1-2)Man(a1-3)]Man(b1-4)GlcNAc(b1-4)GlcNAc
# How it was run: as §1
# [4] = biological target: Neu5Ac(a2-6)Gal(b1-4)GlcNAc(b1-2)Man(a1-6)[GlcNAc(b1-2)Man(a1-3)]Man(b1-4)GlcNAc(b1-4)GlcNAc
# How it was run: as §1
# [5] = biological target: Neu5Ac(a2-6)Gal(b1-4)GlcNAc(b1-2)Man(a1-6)[Man(a1-3)]Man(b1-4)GlcNAc(b1-4)GlcNAc
# How it was run: as §1
# [6] = biological target: Neu5Ac(a2-6)Gal(b1-4)GlcNAc(b1-3)Gal(b1-3)GlcNAc
# How it was run: as §1
# [7] = biological target: Neu5Ac(a2-6)Gal(b1-4)GlcNAc(b1-3)Gal(b1-4)GlcNAc
# How it was run: as §1
# [8] = biological target: Neu5Ac(a2-6)Gal(b1-4)GlcNAc(b1-3)Gal(b1-4)GlcNAc(b1-3)Gal(b1-4)GlcNAc
# How it was run: as §1
# [9] = biological target: Neu5Ac(a2-6)Gal(b1-4)GlcNAc(b1-3)Gal(b1-4)[Fuc(a1-3)]GlcNAc(b1-3)Gal(b1-4)[Fuc(a1-3)]GlcNAc
# How it was run: as §1
# [10] = biological target: Neu5Ac(a2-6)Gal(b1-4)GlcNAc(b1-3)GalNAc
# How it was run: as §1
# [11] = biological target: Neu5Ac(a2-6)Gal(b1-4)GlcNAc6S
# How it was run: as §1
# [12] = biological target: Neu5Ac(a2-6)GalNAc
# How it was run: as §1
# [13] = biological target: Neu5Ac(a2-6)GalNAc(b1-4)GlcNAc
# How it was run: as §1
# [14] = biological target: Neu5Ac(a2-6)GlcNAc(b1-4)GlcNAc
# How it was run: as §1
# [15] = biological target: Neu5Ac(a2-6)GlcNAc(b1-4)GlcNAc(b1-4)GlcNAc
# How it was run: as §1
# [16] = biological target: Neu5Ac(a2-8)Neu5Ac
# How it was run: as §1
# [17] = biological target: Neu5Ac(a2-8)Neu5Ac(a2-3)Gal(b1-4)Glc
# How it was run: as §1
# [18] = biological target: Neu5Ac(a2-8)Neu5Ac(a2-3)[GalNAc(b1-4)]Gal(b1-4)Glc
# How it was run: as §1
# [19] = biological target: Neu5Ac(a2-8)Neu5Ac(a2-8)Neu5Ac
# How it was run: as §1
# [20] = biological target: Neu5Ac(a2-8)Neu5Ac(a2-8)Neu5Ac(a2-3)Gal(b1-4)Glc
# How it was run: as §1
# [21] = biological target: Neu5Ac(a2-8)Neu5Ac(a2-8)Neu5Ac(a2-3)[GalNAc(b1-4)]Gal(b1-4)Glc
# How it was run: as §1
# [22] = biological target: Neu5Ac(a2-8)Neu5Ac(a2-8)Neu5Ac(a2-8)Neu5Ac(a2-3)[GalNAc(b1-4)]Gal(b1-4)Glc
# How it was run: as §1
# [23] = biological target: Neu5Ac(b2-6)Gal(b1-4)GlcNAc
# How it was run: as §1
# [24] = biological target: Neu5Ac(b2-6)GalNAc
# How it was run: as §1
# [25] = biological target: Neu5Ac9Ac(a2-3)Gal(b1-3)GlcNAc
# How it was run: as §1
# [26] = biological target: Neu5Ac9Ac(a2-3)Gal(b1-4)GlcNAc
# How it was run: as §1
# [27] = biological target: Neu5Ac9Ac(a2-6)Gal(b1-4)GlcNAc
# How it was run: as §1
# [28] = biological target: Neu5Gc(a2-3)Gal(b1-3)GlcNAc
# How it was run: as §1
# [29] = biological target: Neu5Gc(a2-3)Gal(b1-3)[Fuc(a1-4)]GlcNAc
# How it was run: as §1
# [30] = biological target: Neu5Gc(a2-3)Gal(b1-4)Glc
# How it was run: as §1
# [31] = biological target: Neu5Gc(a2-3)Gal(b1-4)GlcNAc
# How it was run: as §1
# [32] = biological target: Neu5Gc(a2-3)Gal(b1-4)[Fuc(a1-3)]GlcNAc
# How it was run: as §1
# [33] = biological target: Neu5Gc(a2-6)Gal(b1-4)GlcNAc
# How it was run: as §1
# [34] = biological target: Neu5Gc(a2-6)GalNAc
# How it was run: as §1
# [35] = biological target: Neu5Gc(b2-6)Gal(b1-4)GlcNAc
# How it was run: as §1
binder,measurement,setting,value
B1,glycan array binding signal (z-score),[1],0.505
same,glycan array binding signal (z-score),[2],1.09
same,glycan array binding signal (z-score),[3],0.46
same,glycan array binding signal (z-score),[4],1.29
same,glycan array binding signal (z-score),[5],-0.186
same,glycan array binding signal (z-score),[6],-1.03
same,glycan array binding signal (z-score),[7],0.478
same,glycan array binding signal (z-score),[8],-0.611
same,glycan array binding signal (z-score),[9],0.249
same,glycan array binding signal (z-score),[10],-0.638
same,glycan array binding signal (z-score),[11],-0.002
same,glycan array binding signal (z-score),[12],-0.915
same,glycan array binding signal (z-score),[13],-1.03
same,glycan array binding signal (z-score),[14],-1.21
same,glycan array binding signal (z-score),[15],-0.053
same,glycan array binding signal (z-score),[16],0.501
same,glycan array binding signal (z-score),[17],0.514
same,glycan array binding signal (z-score),[18],-1.36
same,glycan array binding signal (z-score),[19],0.952
same,glycan array binding signal (z-score),[20],0.282
same,glycan array binding signal (z-score),[21],-1.2
same,glycan array binding signal (z-score),[22],0.181
same,glycan array binding signal (z-score),[23],-0.019
same,glycan array binding signal (z-score),[24],-1.3
same,glycan array binding signal (z-score),[25],-0.504
same,glycan array binding signal (z-score),[26],-1.18
same,glycan array binding signal (z-score),[27],0.585
same,glycan array binding signal (z-score),[28],-0.622
same,glycan array binding signal (z-score),[29],-0.646
same,glycan array binding signal (z-score),[30],-0.109
same,glycan array binding signal (z-score),[31],0.722
same,glycan array binding signal (z-score),[32],-0.231
same,glycan array binding signal (z-score),[33],0.988
same,glycan array binding signal (z-score),[34],-0.607
same,glycan array binding signal (z-score),[35],-0.566
